Results published in patent US12016358B2, “Composition comprising taste modulation compounds, their use and foodstuff comprising them” (V. MANE FILS, priority 2015, dated 2024).

Tested on: Saltiness and Salivation (cheese sauce)
Assay: Various levels of pantolactone (D-isomer) in cheese sauce, expert tasters
Assay type: in vivo, human
Text: Five expert tasters consumed the Control and then samples comprising various levels of pantolactone (D-isomer). It was concluded that pantolactone (D-isomer) is clean tasting up to 10-12 ppm in cheese sauce.

CC1(C)COC(=O)C1O (single isomer, unassigned) [pantolactone (D-isomer)]
bitterness / off-flavour (footnote to saltiness score) (cheese sauce, 27 ppm): ** Becomes bitter with no off-flavour. | bitterness / off-flavour of the cheese sauce (cheese sauce, above 10 to 12 ppm): increases the bitterness of the cheese sauce, but it still does not exhibit an off-flavour | concentration up to which clean tasting (in cheese sauce): 10-12 ppm | own taste within the range of sodium enhancement (in vivo): neutral tasting
